From paper PMC9455082
These are yes or no findings as the source states them, for the method shown. In cells and extracts the contact can be indirect. Some results given as binding are weak or reduced against the parent protein; the word gives no strength.

Chains of the proteins cited; added tags and fusions are not shown. Lines headed by an entry give the natural chain unless they say otherwise; changes in a name come on top. Residues count along the entry.
UniProt P20963: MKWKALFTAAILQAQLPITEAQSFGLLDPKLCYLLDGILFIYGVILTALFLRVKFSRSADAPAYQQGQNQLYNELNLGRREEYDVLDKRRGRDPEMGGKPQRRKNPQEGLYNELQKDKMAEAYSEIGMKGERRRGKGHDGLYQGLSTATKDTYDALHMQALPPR
UniProt P07766, residues 23-207: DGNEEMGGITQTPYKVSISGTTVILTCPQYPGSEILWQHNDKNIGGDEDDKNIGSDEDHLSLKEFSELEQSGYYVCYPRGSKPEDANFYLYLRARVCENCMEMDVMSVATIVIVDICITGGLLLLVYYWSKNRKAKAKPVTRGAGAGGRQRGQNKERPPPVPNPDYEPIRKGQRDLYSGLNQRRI
UniProt P43403: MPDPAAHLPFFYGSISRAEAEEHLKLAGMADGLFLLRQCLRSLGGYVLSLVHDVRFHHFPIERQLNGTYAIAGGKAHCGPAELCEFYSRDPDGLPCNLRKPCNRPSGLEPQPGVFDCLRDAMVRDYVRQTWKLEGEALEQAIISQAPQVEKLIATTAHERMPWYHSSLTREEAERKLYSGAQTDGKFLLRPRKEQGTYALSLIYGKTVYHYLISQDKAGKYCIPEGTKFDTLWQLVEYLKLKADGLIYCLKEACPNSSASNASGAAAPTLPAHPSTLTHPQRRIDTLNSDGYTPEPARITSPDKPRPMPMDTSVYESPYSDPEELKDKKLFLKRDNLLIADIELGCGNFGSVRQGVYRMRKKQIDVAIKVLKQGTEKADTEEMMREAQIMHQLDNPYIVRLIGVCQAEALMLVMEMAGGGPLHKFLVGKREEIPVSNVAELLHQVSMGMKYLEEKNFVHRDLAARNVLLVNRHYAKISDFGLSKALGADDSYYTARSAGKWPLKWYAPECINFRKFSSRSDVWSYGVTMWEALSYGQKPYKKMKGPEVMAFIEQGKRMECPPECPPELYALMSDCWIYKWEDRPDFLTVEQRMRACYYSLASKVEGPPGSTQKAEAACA
UniProt P06239: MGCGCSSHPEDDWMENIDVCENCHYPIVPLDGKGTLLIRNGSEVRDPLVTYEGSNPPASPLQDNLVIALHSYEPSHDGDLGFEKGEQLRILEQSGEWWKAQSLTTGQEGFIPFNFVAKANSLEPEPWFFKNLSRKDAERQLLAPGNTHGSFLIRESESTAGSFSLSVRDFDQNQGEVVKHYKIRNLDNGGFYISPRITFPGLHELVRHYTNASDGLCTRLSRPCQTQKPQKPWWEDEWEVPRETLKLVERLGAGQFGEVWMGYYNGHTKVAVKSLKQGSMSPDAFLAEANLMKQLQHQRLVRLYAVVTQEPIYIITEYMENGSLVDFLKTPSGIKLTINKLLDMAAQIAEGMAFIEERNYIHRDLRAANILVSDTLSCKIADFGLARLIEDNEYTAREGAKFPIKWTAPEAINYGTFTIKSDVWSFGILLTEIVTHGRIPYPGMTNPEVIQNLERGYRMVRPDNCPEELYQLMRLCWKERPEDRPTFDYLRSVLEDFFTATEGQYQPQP

Experiments:
[1] = molecular target: TCR ζ-chain (human (endogenous in P116)) (UniProt P20963); assay: co-IP; ζ-chain immunoprecipitated with agarose-bound anti-CD3ζ over night at 4 °C, blotted; steady state and CD3 stimulation
[2] = molecular target: CD3ε of the TCR/CD3 complex (human (endogenous in Jurkat and P116)) (UniProt P07766); assay: proximity ligation; in situ PLA (Duolink) with goat anti-CD3ε and mouse anti-Lck on fixed, saponin-permeabilised Jurkat and P116 cells (Zap70^neg, Zap70^wt or Zap70^C564A); unstimulated, anti-CD3ε (OKT3) or pervanadate for 5 min at 37 °C; a signal means a distance of less than 80 nm

In the case of “Zap70 C564A mutant (Zap70^C564A) (from UniProt P43403 1-619) (enzyme)”, the binding [1] is reported as “binds”.
With “Lck (from UniProt P06239 1-509) (enzyme)” the binding [2] was “binds”.
